The numbers were not newly measured in paper PMC7150867, “Molecular Imaging of Galectin-1 Expression as a Biomarker of Papillary Thyroid Cancer by Using Peptide-Functionalized Imaging Probes” (Biology, 2020), which cites them from elsewhere.

This series concerns gal-1. The note with it: immunohistochemistry on human thyroid biopsy samples. How it is done: Thyroid cancers are the most frequent endocrine cancers and their incidence is increasing worldwide. Thyroid nodules occur in over 19–68% of the population, but only 7–15% of them are diagnosed as malignant. Diagnosis relies on a fine needle aspiration biopsy, which is often inconclusive and about 90% of thyroidectomies are performed for benign lesions. Galectin-1 has been proposed as a confident biomarker for the discrimination of malignant from benign nodules. We previously identified by phage display two peptides (P1 and P7) targeting galectin-1, with the goal of developing imaging probes f ... || Aiming to develop a non-invasive diagnostic strategy able to discriminate benign from malignant thyroid lesions, we previously identified by phage display two gal-1-targeted 12-mer linear peptides, namely P1 and P7 [28], which could be used to functionalize imaging probes for molecular imaging of thyroid nodules and tumors. Their specific binding to gal-1 was confirmed by various methods before and after coupling to ultra-small superparamagnetic particles of iron oxide (USPIO), a contrast agent for magnetic resonance imaging (MRI). The two peptides discriminate thyroid carcinoma from benign ... || To validate the effectiveness of gal-1-targeted peptides, another type of probe and therefore imaging of thyroid cancer was explored. […]

In the case of “HLWGWLYAPSFQ [Peptide P1, gal-1-targeted 12-mer linear peptide identified by phage display]”, the “sensitivity of discriminating thyroid carcinoma from benign thyroid cases” value is given as 65% and the “specificity of discriminating thyroid carcinoma from benign thyroid cases” value is recorded as 67%.
